Assay results taken from article PMC8458909.
No constants are given. Whether binding was seen depends on the method and setting. In cells and extracts the contact can be indirect. Some results given as binding are weak or reduced against the parent protein; the word gives no strength.

The chains behind the UniProt entries cited, without tags or fusion partners.
UniProt Q86XT4: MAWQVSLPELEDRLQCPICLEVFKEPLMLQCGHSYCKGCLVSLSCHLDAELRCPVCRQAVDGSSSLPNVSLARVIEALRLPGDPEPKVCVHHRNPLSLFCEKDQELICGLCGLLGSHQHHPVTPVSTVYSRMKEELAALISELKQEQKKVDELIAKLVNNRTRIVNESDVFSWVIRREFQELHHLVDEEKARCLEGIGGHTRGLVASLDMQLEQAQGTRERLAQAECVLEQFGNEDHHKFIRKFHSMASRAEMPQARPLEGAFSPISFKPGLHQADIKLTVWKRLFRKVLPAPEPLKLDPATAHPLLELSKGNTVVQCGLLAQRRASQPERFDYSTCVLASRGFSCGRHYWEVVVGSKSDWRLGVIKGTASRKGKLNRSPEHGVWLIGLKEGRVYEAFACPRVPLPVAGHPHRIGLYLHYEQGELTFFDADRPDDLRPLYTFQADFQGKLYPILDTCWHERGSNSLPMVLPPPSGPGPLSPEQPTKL
UniProt O95863: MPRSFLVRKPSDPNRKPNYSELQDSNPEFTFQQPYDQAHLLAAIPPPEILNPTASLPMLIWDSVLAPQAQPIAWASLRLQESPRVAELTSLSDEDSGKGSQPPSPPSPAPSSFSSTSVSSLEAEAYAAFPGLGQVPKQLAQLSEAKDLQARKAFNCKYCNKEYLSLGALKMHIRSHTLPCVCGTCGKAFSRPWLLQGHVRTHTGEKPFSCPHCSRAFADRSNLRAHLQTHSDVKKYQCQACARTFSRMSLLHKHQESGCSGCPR

Target: HA-tagged TRIM50 (tripartite motif-containing 50) (human) (UniProt Q86XT4)
Experiment: co-IP; lysates of BxPC-3 and Patu8988 cells transfected with HA-tagged TRIM50 (48 hours); anti-HA (2 ug) 30 minutes at RT, Protein-A/G magnetic beads 30 minutes at RT, washed three times with TBS-T; anti-IgG as negative control; blot with a Snail1 antibody

- binding: binds
Substance: Snail family transcriptional repressor 1 (Snail1) (from UniProt O95863 1-264)
